PubChem BioAssay AID1159584 – Peter MacCallum Cancer Centre | 2016
This is one part, drawn at random, of about 18,000 reagents. Not given: the amount of reagent, the time to read-out.

Screen: 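Knock-downs that harm CDH1-null cells more than parental MCF10A cells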 (primary screen)
System: human MCF10A breast epithelial cells, parental and CDH1-null
Reagents: siRNA against human genes
Detection: 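Cell viability by CellTiter-Glo ATP luminescence, each line scaled to the mean of mock wells across plates, then CDH1-null over parental ratio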
Direction: CDH1-null / parental viability ratio: higher = CDH1-null cells survive relatively better than parental; CDH1-null viability vs mock: higher = more viable CDH1-null cells; parental viability vs mock: higher = more viable parental cells

gene | CDH1-null / parental viability ratio | CDH1-null viability vs mock (fraction of mock) | parental viability vs mock (fraction of mock)
TCEAL3 | 1.01 | 0.99 | 0.98
PRKAA1 | 0.96 | 0.88 | 0.92
OR5P3 | 1.26 | 0.98 | 0.78
CD101 | 1 | 0.94 | 0.94
PCSK6 | 1.22 | 0.98 | 0.8
RPL23A | 1.03 | 0.3 | 0.29
LAT2 | 0.77 | 0.4 | 0.52
NFIB | 0.64 | 0.54 | 0.84
MAGEA9B | 1.06 | 1.03 | 0.97
PARP14 | 0.97 | 1.06 | 1.09
ASGR1 | 0.96 | 0.5 | 0.52
SLC24A2 | 1.02 | 0.9 | 0.88
ACY3 | 0.98 | 0.88 | 0.9
HERPUD2 | 0.91 | 1.05 | 1.15
TPH2 | 0.95 | 0.75 | 0.79
MYBL2 | 1.04 | 0.57 | 0.55
ERGIC3 | 1.03 | 0.72 | 0.7
RNASE2 | 1 | 1.02 | 1.02
SULF2 | 1.03 | 0.74 | 0.72
OCIAD2 | 1.01 | 0.95 | 0.94
TEX2 | 0.65 | 0.7 | 1.07
LRRC25 | 1.09 | 0.83 | 0.76
LDHD | 1.17 | 0.82 | 0.7
STYXL2 | 1.12 | 0.96 | 0.86
PYY | 0.6 | 0.34 | 0.57
FBXW9 | 1.01 | 0.78 | 0.77
CLMN | 1.06 | 1.08 | 1.02
TAS2R1 | 1.03 | 0.78 | 0.76
TSC22D2 | 1.04 | 0.86 | 0.83
IL24 | 1.05 | 0.78 | 0.74
HDGFL2 | 0.81 | 0.66 | 0.81
FCGR3A | 0.76 | 0.64 | 0.84
CNIH4 | 0.97 | 0.7 | 0.72
EYA3 | 0.65 | 0.37 | 0.57
CALM2 | 0.78 | 0.77 | 0.99
PTPN3 | 1.28 | 0.97 | 0.76
APH1B | 1.4 | 0.6 | 0.43
PSAPL1 | 1 | 0.78 | 0.78
SUSD4 | 1.26 | 0.48 | 0.38
POLD4 | 1.12 | 0.56 | 0.5
RELB | 1.08 | 0.84 | 0.78
PGAP1 | 0.88 | 0.65 | 0.74
ULK4 | 1.01 | 1.01 | 1
AKAP4 | 0.91 | 1.13 | 1.24
RNF11 | 0.8 | 0.72 | 0.9
DSTYK | 1.23 | 1.12 | 0.91

4 successive reagents already listed, quoted:
gene | CDH1-null / parental viability ratio | CDH1-null viability vs mock (fraction of mock) | parental viability vs mock (fraction of mock)
CNIH4 | 0.97 | 0.7 | 0.72
EYA3 | 0.65 | 0.37 | 0.57
CALM2 | 0.78 | 0.77 | 0.99
PTPN3 | 1.28 | 0.97 | 0.76
